These are yes or no findings as the source states them, for the method shown. For some assays here: In cells and extracts the contact can be indirect. Some entries that bind do so weakly or less than the wild type.
How the values were obtained:
[1] = molecular target: MCL-1-3xFlag (UniProt Q07820); assay: co-IP; HEK293T cells co-transfected for 24 h, then treated with UMI-77 (10 µM, 4 h) or oxygen-glucose deprivation (5 h); lysis in RIPA buffer (20 mM Tris-HCl, 150 mM NaCl, 0.5% NP-40, 1 mM EDTA); anti-Flag or anti-HA beads overnight at 4 °C; western blot
[2] = molecular target: MCL-1-3xFlag F318A (UniProt Q07820); assay: as above
[3] = molecular target: MCL-1-3xFlag F318A/V321A (UniProt Q07820); assay: as above
[4] = molecular target: MCL-1-3xFlag I264A (UniProt Q07820); assay: as above
[5] = molecular target: MCL-1-3xFlag V321A (UniProt Q07820); assay: as above
[6] = molecular target: MCL-1-3xFlag W261A (UniProt Q07820); assay: as above
[7] = molecular target: MCL-1-3xFlag W261A/I264A (UniProt Q07820); assay: as above
[8] = molecular target: MCL-1-3xFlag ΔLIR^261–264 (UniProt Q07820); assay: as above
[9] = molecular target: endogenous MCL-1 (human (endogenous in HEK293T and HeLa)) (UniProt Q07820); assay: proximity ligation; Duolink PLA with MCL-1 and LC3A primary antibodies in fixed HEK293T cells, DMSO or UMI-77 (10 µM, 4 h)
[10] = molecular target: endogenous MCL-1 (human (endogenous in HEK293T and HeLa)) (UniProt Q07820); assay: proximity ligation; PLA with MCL-1 and LC3A primary antibodies in fixed HeLa WT and quadruple KO (NBR1, TAX1BP1, p62, NDP52) cells, UMI-77 (5 µM) for the indicated times
[11] = molecular target: GST-LC3A (UniProt Q9H492); assay: pull-down; GST-LC3A incubated with purified MCL-1 (1-325) for 2 h at 4 °C; GST beads washed four times with lysis buffer; western blot; both purified

Measured: binding

HA-LC3A (from UniProt Q9H492 1-121)
not listed: [9] | [10] | [11]
binds: all other assays above

endogenous LC3A (from UniProt Q9H492 1-121)
binds: [9] | [10]

truncated MCL-1 (1-325aa) (from UniProt Q07820 1-325) (domain or fragment)
binds: [11]

Reference: article PMC7665171
